Some of the results follow.
Biological target: T1, OsSMF1 (Oryza sativa, UniProt Q6ZLB0 1-436)
T1 sequence: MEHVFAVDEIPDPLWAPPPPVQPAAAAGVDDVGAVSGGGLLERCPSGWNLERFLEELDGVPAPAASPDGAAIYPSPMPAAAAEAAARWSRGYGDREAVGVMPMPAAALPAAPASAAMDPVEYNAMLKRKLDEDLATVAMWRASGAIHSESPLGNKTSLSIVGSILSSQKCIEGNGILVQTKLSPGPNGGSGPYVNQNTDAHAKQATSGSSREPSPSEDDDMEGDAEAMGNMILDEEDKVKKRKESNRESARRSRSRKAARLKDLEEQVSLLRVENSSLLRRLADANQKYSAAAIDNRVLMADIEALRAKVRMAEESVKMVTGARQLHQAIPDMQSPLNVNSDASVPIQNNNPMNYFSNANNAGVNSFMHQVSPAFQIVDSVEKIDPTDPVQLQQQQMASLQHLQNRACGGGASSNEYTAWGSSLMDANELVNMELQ
Assay: protein-binding microarray (RPBM); PBS, 2% BSA, 51.3 ng/ul salmon testes DNA, 50 uM zinc acetate, 200 nM TF, 25 C, 1 h; high values mean tight binding
Details: protein: recombinant; tags: N-terminal polyhistidine and DsRed monomer fusion (pET32a); chain copies: 2; label: CyDye5-dUTP incorporated in the synthesized complementary strand; 3' TTTTT single-stranded linker to array surface; dsDNA, one strand shown
In short: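 Per-feature fluorescence intensity (arbitrary units), read on an Axon 4000B scanner, is the binding signal. Transcription factors carrying an N-terminal polyhistidine tag and DsRed fusion were expressed in E. coli BL21-CodonPlus and purified on Ni–NTA. A custom Agilent array, made double-stranded by primer extension with Cy5-dUTP and blocked with 2% BSA, was incubated with 200 nM protein in PBS, 2% BSA, salmon testes DNA and 50 µM zinc acetate at 25 °C for 1 h and then washed.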

| Sequence | binding signal |
| --- | --- |
| ACGGAATGAACACTAATTTACTTAATACATAGAACCACGGCGGAGTCACCTAGTGCAG | 23300 fluorescence intensity (a.u.) |
| TGTTGTCTGCCTTAGTGCCTTGTGCATTTGTTCTTAAACCCGGAGTCACCTAGTGCAG | 3240 fluorescence intensity (a.u.) |
| GTGTTTATATAAGTGTTTGCATATGTACTATGTTTTAATACGGAGTCACCTAGTGCAG | 3730 fluorescence intensity (a.u.) |
| ATACGCCTACTCCGTCTAAACTGAGACAGAATCACGGGCCCGGAGTCACCTAGTGCAG | 19000 fluorescence intensity (a.u.) |
| CTCCCTTCCCTTCCCTTCCTCTCGCCGAACCAACGCGGAACGGAGTCACCTAGTGCAG | 3360 fluorescence intensity (a.u.) |
| TGGGAGGGAGGGAGTATTCCGTTTGAGTGCAACAACGCTACGGAGTCACCTAGTGCAG | 3270 fluorescence intensity (a.u.) |
| CCCTCATGTCAGGTGAGGTGTACAGTAGTCGGCGTCTCATCGGAGTCACCTAGTGCAG | 3590 fluorescence intensity (a.u.) |
| ATATTACCATGAAAAGATTACACCTGGCTTGACCATAACCCGGAGTCACCTAGTGCAG | 3910 fluorescence intensity (a.u.) |
| GCGGGCGGCGGTCGAATGGGAAGGCGCCACGTGGCACTAACGGAGTCACCTAGTGCAG | 24200 fluorescence intensity (a.u.) |
| TTAGCCACACCATTGCTGATTTGCACACACCTCAACATAGCGGAGTCACCTAGTGCAG | 4040 fluorescence intensity (a.u.) |
| ACACACGCGTTATTTGGGGTTCCGGCCCAATACGTGGCCCCGGAGTCACCTAGTGCAG | 5850 fluorescence intensity (a.u.) |
| TCTACGTGGCGGCTGAGTCAGCATGGGGCCCACGTGGGCCCGGAGTCACCTAGTGCAG | 14600 fluorescence intensity (a.u.) |
| GCGTGCGTCCATATTCTATATACTTAGTATATAGTTATTACGGAGTCACCTAGTGCAG | 26900 fluorescence intensity (a.u.) |
| GCTCGCCGCGTGCTCTCGTCATCCATCCGACCCACGCCCGCGGAGTCACCTAGTGCAG | 4780 fluorescence intensity (a.u.) |
| GATTAATTGTTGCATTTAAAATGTGGGTCATGACCGCTATCGGAGTCACCTAGTGCAG | 3650 fluorescence intensity (a.u.) |
| GGAATTTCTCTTTCTACACAACTGTTTGCGTCAACATATACGGAGTCACCTAGTGCAG | 3200 fluorescence intensity (a.u.) |
| AATAGGTTGCAAGGTATCTCCTATGACGTATTCTCGTATGCGGAGTCACCTAGTGCAG | 5210 fluorescence intensity (a.u.) |
| CCAATACCGATATTGCGCTTACGTCACACTACCGTTACCACGGAGTCACCTAGTGCAG | 8320 fluorescence intensity (a.u.) |
| CAAACTAGCAACATCCCAAATTTTACCAGGTGTATATATACGGAGTCACCTAGTGCAG | 4250 fluorescence intensity (a.u.) |
| TTTTAACGCATTGACATGACAGTGTAGCACCAACAACTTCCGGAGTCACCTAGTGCAG | 3370 fluorescence intensity (a.u.) |
| GCGGCAGGGGCGGATCGAGGCACGTTGGCGCCGGATGGAGCGGAGTCACCTAGTGCAG | 3240 fluorescence intensity (a.u.) |

| Sequence | binding signal |
| --- | --- |
| CGCGCGCGCCCTACGTGGGCCATGTGGACCGGGAGTGCGCCGGAGTCACCTAGTGCAG | 4710 fluorescence intensity (a.u.) |
| TCCTCTATGGCGCCGCTTACGTCCCGCCGCCCCGCTCCTGCGGAGTCACCTAGTGCAG | 3150 fluorescence intensity (a.u.) |
| GATGGGATCGGAGGAATGGAACACACAATATATATGTGTGCGGAGTCACCTAGTGCAG | 4040 fluorescence intensity (a.u.) |
| CGCACACGCCACGTAAATCGTACTGCCTAAACCAGGCCTACGGAGTCACCTAGTGCAG | 4000 fluorescence intensity (a.u.) |
| CCGCGCCGCCGCCGCCGCCGCCACCGCCGCATCGCCGCTGCGGAGTCACCTAGTGCAG | 4080 fluorescence intensity (a.u.) |
| TGCCGTGCTCGCCGCTGCTGCTTCCGTAGCGTCACAAACTCGGAGTCACCTAGTGCAG | 33800 fluorescence intensity (a.u.) |
| AGACCCCTTCTGTCACATCAGCAGATCAGCTCAAGTGCTCCGGAGTCACCTAGTGCAG | 3350 fluorescence intensity (a.u.) |
| GGCAACATCCAACGGGAAGTGCGCGTCACGTCCCACCGGCCGGAGTCACCTAGTGCAG | 6880 fluorescence intensity (a.u.) |
| TAACATCTTCCTCACGCACCGATTGTCCTACACCACTCAGCGGAGTCACCTAGTGCAG | 23300 fluorescence intensity (a.u.) |
| TTTTCGTGGACTCGTGGCCAACTCCAATACGTTTCCAACCCGGAGTCACCTAGTGCAG | 3150 fluorescence intensity (a.u.) |
| GCTGAAGCATGCCTGACATTTTCATTGGTCTGTTTGGTTCCGGAGTCACCTAGTGCAG | 36600 fluorescence intensity (a.u.) |
| GGCTGGTTTGGTTTGTGGCTAAAATTGGCCTTACCAATTTCGGAGTCACCTAGTGCAG | 12600 fluorescence intensity (a.u.) |
| GCCTACAAATCGCGGTGATGGTCGCGTCAGCGTCGCAAGCCGGAGTCACCTAGTGCAG | 3270 fluorescence intensity (a.u.) |
| ATTTGCTGCTTACACGGCATTTTGACTATGCGTGTAGTACCGGAGTCACCTAGTGCAG | 3780 fluorescence intensity (a.u.) |
| TCAAGAGATTCGTTACATGGCTACAAGGTCACAAATTAGTCGGAGTCACCTAGTGCAG | 7240 fluorescence intensity (a.u.) |
| CGCCCCAAAGATCACACGAACGCGTGACGCCGCCCGTCACCGGAGTCACCTAGTGCAG | 3880 fluorescence intensity (a.u.) |
| AGATAGTGGGATGCATATGCAGGAAACAGCCAGCTCATCACGGAGTCACCTAGTGCAG | 6560 fluorescence intensity (a.u.) |
| AAAATTGATATGTAATTATGACACACTTACGTCGGATATGCGGAGTCACCTAGTGCAG | 6000 fluorescence intensity (a.u.) |
| CAAATGCTTATGAGCACACCTGCGAATGTGTCATCTAGCGCGGAGTCACCTAGTGCAG | 5060 fluorescence intensity (a.u.) |
| TCTGGTGCAGGGGCGAACGCGATTAGCCATGATGTAGCGTCGGAGTCACCTAGTGCAG | 27900 fluorescence intensity (a.u.) |
| GCCGGCACGCTGTACAGGGACGTGGCGTCGCCGTGGCCGACGGAGTCACCTAGTGCAG | 7810 fluorescence intensity (a.u.) |

Copied from above (3 entries):

| Sequence | binding signal |
| --- | --- |
| CGCCCCAAAGATCACACGAACGCGTGACGCCGCCCGTCACCGGAGTCACCTAGTGCAG | 3880 fluorescence intensity (a.u.) |
| AGATAGTGGGATGCATATGCAGGAAACAGCCAGCTCATCACGGAGTCACCTAGTGCAG | 6560 fluorescence intensity (a.u.) |
| AAAATTGATATGTAATTATGACACACTTACGTCGGATATGCGGAGTCACCTAGTGCAG | 6000 fluorescence intensity (a.u.) |

Source: publication PMC7819943, “Rice protein-binding microarrays: a tool to detect cis-acting elements near promoter regions in rice”
